Results taken from publication PMC9490041 (iScience, 2022).

Tested on: not listed separately
Assay: general procedure: Fmoc solid-phase peptide synthesis; Fmoc-preloaded resins; DIC/OxymaPure
Conditions: whole synthesis, UPLC-MS, scale of the general procedure 10 mg resin per well

Row | Compound | crude LC-MS purity
1 | YDKPLSKKHAHSVNF | 90%
2 | YDKRDSEEESESTAL | 97%
3 | YDMRLQMNQTLPVQV | 87%
4 | YDSIEIYIPEAQTRL | 86%
5 | YDVLKNMTDKAPPGV | 95%
6 | YDVVAVYPNAKVELV | 96%
7 | YEKAASREEPIEWEF | 72%
8 | YEPGTELSPTLPHQL | 97%
9 | YEPPEPKKSRRSVLL | 98%
10 | YEPSERHTEEALRKF | 83%
11 | YERAANREEALEWEF | 73%
12 | YESIEIYIPEAQTRL | 86%
13 | YFTATEPQYQPGENL | 98%
14 | YFTYHTSDGDALLLL | 67%
15 | YGADIPYEDIIATEI | 92%
16 | YGQRDLYSGLNQRRI | 86%
17 | YHGGNLETREPTNTL | 96%
18 | YHKGEVVDVMVIGRL | 91%
19 | YKEGYNVYGIESVKI | 89%
20 | YLADEVSASLAKQGL | 95%

Row | Compound | crude LC-MS purity
21 | YLFASLEAYSHIRGF | 72%
22 | YLHGHRYSSGSRSLV | 81%
23 | YLSGPYIWVPARERL | 82%
24 | YLTGAPLATSDETSI | 90%
25 | YMEGLVPVGYTSLVL | 92%
26 | YMSHSSGMPLGATGL | 87%
27 | YPLVGQDIIDLQTEV | 83%
28 | YPSIVQALSLYDGLV | 92%
29 | YQEQNKVLWIPASPL | 94%
30 | YQETLFVGNDQVSEI | 76%
31 | YQPYFITNSKTEVTV | 86%
32 | YQSGPFIWIPSKEKL | 90%
33 | YRQPLPDSNPEESSV | 97%
34 | YRTQMQQMHGRMVPV | 77%
35 | YSSTSPQSTDKSSTV | 94%
36 | YVESLSSESTATSPV | 90%
37 | YVMQDESFPASKIEL | 89%
38 | YVRLLQSDPSSASQF | 61%
39 | YYETGSLSFAGDERI | 78%
40 | YYETSHYPASPDSWV | 81%

Tested on: PSG (PSD-95), residues G322 and G335
Assay: not given
Conditions: double mutant cycle PSG, G322A, G335A, from stopped-flow Kd, SynGap from ITC Kd

Row | Compound | Coupling free energy ΔΔΔGc (DDDGc)
41 | CC(C)C[C@H](NC(=O)[C@@H](NC(=O)[C@H](CCCCN)NC(=O)[C@H](CCCCN)NC(=O)CNS(=O)(=O)c1cccc2c(N(C)C)cccc12)C(C)C)C(=O)N[C@@H](CC(=O)O)C(=O)N[C@H](C(=O)N[C@@H](CCCCN)C(=O)N[C@@H](CC(N)=O)C(=O)N[C@@H](Cc1ccc(O)cc1)C(=O)N[C@@H](CCCCN)C(=O)N[C@@H](CCC(N)=O)C(=O)N[C@H](C(=O)N[C@@H](CO)C(=O)N[C@H](C(=O)O)C(C)C)[C@@H](C)O)[C@@H](C)O [15 AA CRIPT] | -0.12 kcal/mol
42 | CC(C)[C@H](NC(=O)[C@H](CCCNC(=N)N)NC(=O)[C@@H](NC(=O)[C@H](CCC(N)=O)NC(=O)[C@H](CCC(N)=O)NC(=O)[C@@H](NC(=O)[C@H](Cc1c[nH]c2ccccc12)NC(=O)[C@@H]1CCCN1C(=O)[C@@H]1CCCN1C(=O)[C@H](Cc1ccccc1)NC(=O)[C@H](CO)NC(=O)CNC(=O)[C@H](CCCNC(=N)N)NC(=O)[C@H](CCC(N)=O)NC(=O)[C@H](C)NS(=O)(=O)c1cccc2c(N(C)C)cccc12)C(C)C)[C@@H](C)O)C(=O)O [15 AA SynGap] | -0.18 kcal/mol

Tested on: not listed separately
Assay: peptide made by a vendor (peptide synthesis; Fmoc-preloaded resins; DIC/OxymaPure)
Conditions: whole synthesis, UPLC-MS, scale of the general procedure 10 mg resin per well

Row | Compound | purity (crude or final not stated)
43 | YAELKRNTLYFSTDV | >95%
44 | YAVALIAYLSKNNHL | >95%
45 | YERLKQFVSQELVNL | >95%
46 | YLFATLEAYSYIKGF | >95%
47 | YPPSSPTLSVSSTSL | >95%
48 | YQARRGKKKSGSLVL | >95%
49 | YSRQHSKLLDFDDVL | >95%
50 | YSSPAQSVTPVQTVV | >95%

For some assays here: End groups of sequences in plain letters are not given here.
